No constants are given. Whether binding was seen depends on the method and setting. Binding seen in cells or lysates may run through a third protein. Binding can be weak; no strength is given. Sequences can lack the tags named with a protein.
Molecular target: T1, HA-tagged mouse caspase-11 (mouse) (UniProt P70343)
T1 sequence: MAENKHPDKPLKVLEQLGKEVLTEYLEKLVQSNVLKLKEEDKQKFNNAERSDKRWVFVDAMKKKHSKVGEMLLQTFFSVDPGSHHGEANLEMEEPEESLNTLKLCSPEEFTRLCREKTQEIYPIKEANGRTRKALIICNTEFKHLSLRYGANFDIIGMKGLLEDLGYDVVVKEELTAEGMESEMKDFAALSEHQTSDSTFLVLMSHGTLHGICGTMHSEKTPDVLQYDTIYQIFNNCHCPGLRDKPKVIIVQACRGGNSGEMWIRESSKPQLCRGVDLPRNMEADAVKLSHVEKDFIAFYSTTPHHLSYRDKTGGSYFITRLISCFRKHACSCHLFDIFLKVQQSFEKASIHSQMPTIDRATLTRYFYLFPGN
Assay: co-IP; HEK293T co-transfected with HA-caspase-11 and FLAG-S1P (full length or single domains), 24 h; whole cell lysates (50 mM NaCl, 200 mM Tris-HCl pH 7.5, 1 mM EDTA, 1% NP-40) immunoprecipitated with anti-HA antibody at 4 C overnight, protein G-agarose; blot with anti-FLAG

Amino acid sequences for entries named in this document (tags omitted). A change or cut given only in a name is not applied to a line headed by its entry.
UniProt Q9WTZ2: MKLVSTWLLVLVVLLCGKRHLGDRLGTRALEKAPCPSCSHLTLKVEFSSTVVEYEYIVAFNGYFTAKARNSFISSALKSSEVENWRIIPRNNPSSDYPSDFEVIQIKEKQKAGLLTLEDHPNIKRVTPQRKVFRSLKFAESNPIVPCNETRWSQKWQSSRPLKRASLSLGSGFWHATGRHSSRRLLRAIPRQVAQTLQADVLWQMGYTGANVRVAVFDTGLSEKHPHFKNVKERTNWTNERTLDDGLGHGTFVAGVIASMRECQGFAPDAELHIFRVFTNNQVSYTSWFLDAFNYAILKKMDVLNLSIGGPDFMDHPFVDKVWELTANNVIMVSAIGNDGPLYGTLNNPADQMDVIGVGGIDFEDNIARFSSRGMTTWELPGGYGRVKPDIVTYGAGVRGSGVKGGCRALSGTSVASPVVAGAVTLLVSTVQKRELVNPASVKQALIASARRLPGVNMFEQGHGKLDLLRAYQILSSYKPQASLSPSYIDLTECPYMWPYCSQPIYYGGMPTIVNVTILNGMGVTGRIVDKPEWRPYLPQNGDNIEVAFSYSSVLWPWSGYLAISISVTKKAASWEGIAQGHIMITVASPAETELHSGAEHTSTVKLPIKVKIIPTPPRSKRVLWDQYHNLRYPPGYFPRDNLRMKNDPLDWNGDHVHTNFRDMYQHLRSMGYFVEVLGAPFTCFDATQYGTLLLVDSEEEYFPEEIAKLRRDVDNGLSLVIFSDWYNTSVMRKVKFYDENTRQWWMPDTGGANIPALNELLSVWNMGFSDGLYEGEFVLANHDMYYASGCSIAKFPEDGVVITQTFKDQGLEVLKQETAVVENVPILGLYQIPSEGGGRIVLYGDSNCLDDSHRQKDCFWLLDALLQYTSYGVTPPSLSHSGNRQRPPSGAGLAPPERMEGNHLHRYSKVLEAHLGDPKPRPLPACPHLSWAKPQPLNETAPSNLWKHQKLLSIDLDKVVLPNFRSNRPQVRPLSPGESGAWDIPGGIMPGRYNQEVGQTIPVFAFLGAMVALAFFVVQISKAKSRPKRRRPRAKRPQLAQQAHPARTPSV

Row | Substance | binding
1 | FLAG-tagged mouse S1P domain 3 (domain or fragment) | binds
2 | FLAG-tagged mouse S1P domain 1 (domain or fragment) | binds
3 | FLAG-tagged mouse S1P domain 2 (domain or fragment) | no binding
4 | full-length FLAG-tagged mouse S1P (from UniProt Q9WTZ2) (enzyme) | binds

— publication PMC9912839
